According to paper PMC10617600:
Results are given in words; binding and its absence hold for the method and conditions named. For some assays here: In cells and extracts the contact can be indirect. Some entries that bind do so weakly or less than the wild type. For some assays here: Tags and fused reporters may be left off the sequences shown.

Amino acid sequences for entries named in this document (tags omitted). A change or cut given only in a name is not applied to a line headed by its entry.
UniProt P19073: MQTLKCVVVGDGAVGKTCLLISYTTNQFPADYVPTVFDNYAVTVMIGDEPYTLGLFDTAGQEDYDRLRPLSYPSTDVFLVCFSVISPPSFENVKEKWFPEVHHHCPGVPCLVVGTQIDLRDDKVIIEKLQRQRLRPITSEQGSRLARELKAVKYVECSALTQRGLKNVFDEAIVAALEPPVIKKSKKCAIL

Assays:
Axl2–TAP (S. cerevisiae) [1] = target: T1, Axl2–TAP (S. cerevisiae) (UniProt P38928); assay: pull-down; lysates of WT or bud3Δ yeast expressing GST-CDC42 incubated with TAP–Axl2 bound IgG-Sepharose beads, 1 h at 4°C; 50 mM HEPES pH 7.6, 100 mM KCl, 1 mM EGTA, 1 mM MgCl2, 10% glycerol, 0.33% Triton X-100; anti-GST immunoblot; only the target purified
T1 sequence: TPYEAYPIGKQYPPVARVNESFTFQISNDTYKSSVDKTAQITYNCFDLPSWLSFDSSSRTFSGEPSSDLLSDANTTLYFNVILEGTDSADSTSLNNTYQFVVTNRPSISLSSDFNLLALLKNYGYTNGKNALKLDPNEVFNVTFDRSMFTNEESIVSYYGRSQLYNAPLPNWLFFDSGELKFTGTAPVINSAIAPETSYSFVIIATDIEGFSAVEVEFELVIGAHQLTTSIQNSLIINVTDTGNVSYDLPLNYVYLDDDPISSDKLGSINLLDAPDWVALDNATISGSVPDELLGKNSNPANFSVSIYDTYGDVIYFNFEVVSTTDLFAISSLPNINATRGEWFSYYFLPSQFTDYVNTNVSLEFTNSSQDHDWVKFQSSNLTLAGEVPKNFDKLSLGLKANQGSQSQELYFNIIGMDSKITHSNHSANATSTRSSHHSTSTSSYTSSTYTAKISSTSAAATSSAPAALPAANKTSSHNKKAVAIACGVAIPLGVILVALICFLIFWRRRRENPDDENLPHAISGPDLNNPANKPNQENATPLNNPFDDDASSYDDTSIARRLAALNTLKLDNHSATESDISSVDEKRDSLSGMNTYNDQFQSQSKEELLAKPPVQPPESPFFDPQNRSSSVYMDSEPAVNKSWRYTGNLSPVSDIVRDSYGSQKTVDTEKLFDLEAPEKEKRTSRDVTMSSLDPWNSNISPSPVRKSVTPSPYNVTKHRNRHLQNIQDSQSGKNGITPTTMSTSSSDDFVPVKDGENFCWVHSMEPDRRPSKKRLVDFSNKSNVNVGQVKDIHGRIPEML

Axl2–TAP (S. cerevisiae) [2] = target: T1, Axl2–TAP (S. cerevisiae); assay: pull-down; as a1, in a bud4Δ mutant strain: Axl2–TAP captured on IgG-Sepharose from yeast S10 lysate, 4°C; anti-Myc immunoblot
Cdc10–VC (S. cerevisiae) = target: T2, Cdc10–VC (S. cerevisiae) (UniProt P25342); assay: split reporter; BiFC with VN and VC fragments of Venus in living yeast cells (haploid; diploid for Cdc10–Cdc10; WT and axl2Δ), YFP imaging at ∼24°C
T2 sequence: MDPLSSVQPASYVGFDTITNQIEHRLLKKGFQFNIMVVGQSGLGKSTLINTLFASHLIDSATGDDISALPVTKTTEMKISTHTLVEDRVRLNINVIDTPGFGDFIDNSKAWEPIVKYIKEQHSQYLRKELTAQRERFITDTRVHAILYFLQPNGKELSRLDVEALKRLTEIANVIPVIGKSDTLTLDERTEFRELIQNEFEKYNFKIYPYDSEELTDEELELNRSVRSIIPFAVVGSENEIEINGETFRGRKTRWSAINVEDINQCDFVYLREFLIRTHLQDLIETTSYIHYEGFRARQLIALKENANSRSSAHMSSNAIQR

[3] = target: DBD–Cdc42 (WT) (S. cerevisiae) (UniProt P19073); assay: two-hybrid; AD fusions (pJG4-5) and DBD fusions (pEG202) in host strain WT (EGY48) or bud3Δ (HPY3657); LEU2 reporter, growth on SGal −Leu for 3–4 days at 30°C
[4] = target: DBD–Cdc42^G12V (S. cerevisiae) (UniProt P19073); assay: as above
[5] = target: DBD–Cdc42^D118A (S. cerevisiae) (UniProt P19073); assay: as above
[6] = target: DBD–Cdc42^G15A (S. cerevisiae) (UniProt P19073); assay: as above
[7] = target: T3, DBD–Cdc10 (S. cerevisiae) (UniProt P25342); assay: as above
T3 sequence: T2 sequence

[8] = target: DBD–Cdc42^K5A (S. cerevisiae) (UniProt P19073); assay: as above
Axl2–TAP (S. cerevisiae) [9] = target: T1, Axl2–TAP (S. cerevisiae); assay: pull-down; Axl2–TAP captured on IgG-Sepharose from yeast S10 lysate, 1 h at 4°C; 50 mM HEPES pH 7.6, 300 mM KCl, 1 mM EGTA, 1 mM MgCl2, 10% glycerol, 1% Triton X-100; anti-Myc immunoblot; WT and axl1 mutant strains

Molecule: GST–Cdc42 (from UniProt P19073 1-191)
- binding (Axl2–TAP (S. cerevisiae) [1]): binds

Molecule: Bud3–Myc (from UniProt P25558 1-1636)
- binding (Axl2–TAP (S. cerevisiae) [2]): binds weakly

B1: Cdc3–VN (protein, UniProt P32457 1-520)
chain: MSLKEEQVSIKQDPEQEERQHDQFNDVQIKQESQDHDGVDSQYTNGTQNDDSERFEAAESDVKVEPGLGMGITSSQSEKGQVLPDQPEIKFIRRQINGYVGFANLPKQWHRRSIKNGFSFNLLCVGPDGIGKTTLMKTLFNNDDIEANLVKDYEEELANDQEEEEGQGEGHENQSQEQRHKVKIKSYESVIEENGVKLNLNVIDTEGFGDFLNNDQKSWDPIIKEIDSRFDQYLDAENKINRHSINDKRIHACLYFIEPTGHYLKPLDLKFMQSVYEKCNLIPVIAKSDILTDEEILSFKKTIMNQLIQSNIELFKPPIYSNDDAENSHLSERLFSSLPYAVIGSNDIVENYSGNQVRGRSYPWGVIEVDNDNHSDFNLLKNLLIKQFMEELKERTSKILYENYRSSKLAKLGIKQDNSVFKEFDPISKQQEEKTLHEAKLAKLEIEMKTVFQQKVSEKEKKLQKSETELFARHKEMKEKLTKQLKALEDKKKQLELSINSASPNVNHSPVPTKKKGFLR
- binding (Cdc10–VC (S. cerevisiae)): binds

B2: Cdc10–VC (protein, UniProt P25342 1-322)
chain: T2 sequence
- binding (Cdc10–VC (S. cerevisiae)): binds

B3: AD–Axl2(C) (domain or fragment, UniProt P38928 529-823)
chain: WRRRRENPDDENLPHAISGPDLNNPANKPNQENATPLNNPFDDDASSYDDTSIARRLAALNTLKLDNHSATESDISSVDEKRDSLSGMNTYNDQFQSQSKEELLAKPPVQPPESPFFDPQNRSSSVYMDSEPAVNKSWRYTGNLSPVSDIVRDSYGSQKTVDTEKLFDLEAPEKEKRTSRDVTMSSLDPWNSNISPSPVRKSVTPSPYNVTKHRNRHLQNIQDSQSGKNGITPTTMSTSSSDDFVPVKDGENFCWVHSMEPDRRPSKKRLVDFSNKSNVNVGQVKDIHGRIPEML
- binding [3]: binds
- binding [4]: binds
- binding [5]: no binding
- binding [6]: no binding
- binding [7]: binds

B4: AD–Bud3 (domain or fragment, UniProt P25558 1-656)
chain: MEKDLSSLYSEKKDKENDETLFNIKLSKSVVETTPLNGHSLFDDDKSLSDWTDNVFTQSVFYHGSDDLIWGKFFVCVYKSPNSNKLNAIIFDKLGTSCFESVDISSNSQYYPAIENLSPSDQESNVKKCIAVILLQRYPLLSPSDLSQILSNKSENCDYDPPYAGDLASSCQLITAVPPEDLGKRFFTSGLLQNRFVSSTLLDVIYENNESTIELNNRLVFHLGEQLEQLFNPVTEYSPEQTEYGYKAPEDELPTESDDDLVKAICNELLQLQTNFTFNLVEFLQKFLIALRVRVLNEEINGLSTTKLNRLFPPTIDEVTRINCIFLDSLKTAIPYGSLEVLKACSITIPYFYKAYTRHEAATKNFSKDIKLFIRHFSNVIPEREVYTEMKIESIIKGPQEKLLKLKLIIERLWKSKKWRPKNQEMAKKCYNNIIDVIDSFGKLDSPLHSYSTRVFTPSGKILTELAKCWPVELQYKWLKRRVVGVYDVVDLNDENKRNLLVIFSDYVVFINILEAESYYTSDGSNRPLISDILMNSLINEVPLPSKIPKLKVERHCYIDEVLVSILDKSTLRFDRLKGKDSFSMVCKLSSAFISSSSVADLITKARILEKDTAFHLFKASRSHFTLYSTAHELCAYDSEKIKSKFALFLNIPPSK
- binding [8]: binds

B5: Bud3ΔN–Myc (domain or fragment, UniProt P25558 260-1636)
chain: DLVKAICNELLQLQTNFTFNLVEFLQKFLIALRVRVLNEEINGLSTTKLNRLFPPTIDEVTRINCIFLDSLKTAIPYGSLEVLKACSITIPYFYKAYTRHEAATKNFSKDIKLFIRHFSNVIPEREVYTEMKIESIIKGPQEKLLKLKLIIERLWKSKKWRPKNQEMAKKCYNNIIDVIDSFGKLDSPLHSYSTRVFTPSGKILTELAKCWPVELQYKWLKRRVVGVYDVVDLNDENKRNLLVIFSDYVVFINILEAESYYTSDGSNRPLISDILMNSLINEVPLPSKIPKLKVERHCYIDEVLVSILDKSTLRFDRLKGKDSFSMVCKLSSAFISSSSVADLITKARILEKDTAFHLFKASRSHFTLYSTAHELCAYDSEKIKSKFALFLNIPPSKEILEVNNLHLAFFARFCSNDGRDNIVILDVLTKHDDKHIEVTSDNIVFTIINQLAIEIPICFSSLNSSMAKDLLCVNENLIKNLEHQLEEVKHPSTDEHRAVNSKLSGASDFDATHEKKRSYGTITTFRSYTSDLKDSPSGDNSNVTKETKEILPVKPTKKSSKKPREIQKKTKTNASKAEHIEKKKPNKGKGFFGVLKNVFGSKSKSKPSPVQRVPKKISQRHPKSPVKKPMTSEKKSSPKRAVVSSPKIKKKSTSFSTKESQTAKSSLRAVEFKSDDLIGKPPDVGNGAHPQENTRISSVVRDTKYVSYNPSQPVTENTSNEKNVEPKADQSTKQDNISNFADVEVSASSYPEKLDAETDDQIIGKATNSSSVHGNKELPDLAEVTTANRVSTTSAGDQRIDTQSEFLRAADVENLSDDDEHRQNESRVFNDDLFGDFIPKHYRNKQENINSSSNLFPEGKVPQEKGVSNENTNISLKTNEDASTLTQKLSPQASKVLTENSNELKDTNNEGKDAKDIKLGDDYSDKETAKEITKPKNFVEGITERKEIFPTIPRLAPPASKINFQRSPSYIELFQGMRVVLDKHDAHYNWKRLASQVSLSEGLKVNTEEDAAIINKSQDDAKAERMTQISEVIEYEMQQPIPTYLPKAHLDDSGIEKSDDKFFEIEEELKEELKGSKTGNEDVGNNNPSNSIPKIEKPPAFKVIRTSPVRIIGRTFEDTRKYENGSPSDISFTYDTHNNDEPDKRLMELKFPSQDEIPDDRFYTPAEEPTAEFPVEELPNTPRSINVTTSNNKSTDDKLSSGNIDQKPTELLDDLEFSSFNIAFGNTSMSTDNMKISSDLSSNKTVLGNAQKVQESPSGPLIYVLPQSSTKHEKEGFLRKKQKDEPIWVSPSKIDFADLSRRTKALTPERNTVPLKNNDSRKYKYTGEGSIGNMTNMLLTKDASYAYLKDFVALSDDEDEDGKQNCAVGGPEKLKFY
- binding (Axl2–TAP (S. cerevisiae) [9]): no binding
